Experimental data as given in US10723764B2, “Anti-microbial peptides and methods of use thereof” (priority 2011, dated 2020).
Where a SMILES comes first, the peptide text is derived from it. [ ]: non-standard residue; d: D form. Phe(4-CF3) = N[C@@H](Cc1ccc(C(F)(F)F)cc1)C(=O)O; Bip = N[C@@H](Cc1ccc(-c2ccccc2)cc1)C(=O)O; 2Nal = N[C@@H](Cc1ccc2ccccc2c1)C(=O)O

Test system: human erythrocytes
Conditions: for cell selectivity index (ratio between HL50 and MIC): MIC of 3.1 μM used
Protocol: Peptide hemolysis was assayed using an established protocol (Malmsten et al. (2011) PLoS One 6:e16400). In brief, fresh blood, obtained from the UNMC Blood Bank, was washed three times with PBS buffer and made into a 5% solution. To 90 μL of this solution, 10 μL of a peptide solution was added and incubated at 37° C. for one hour. After centrifugation at 13,000 rpm, aliquots of the supernatant were transferred to a fresh 96 well microplate. The absorbance of the solutions was measured at 545 nm to detect the amount of hemoglobin released. The percent lysis was calculated by assuming 100% release when treated with 2% Triton X-100 and no lysis (0%) when treated with PBS buffer. HL50 was the peptide concentration that caused 50% lysis of human erythrocytes. The cell selectivity (CS) indexes were calculated as the ratio of HL50 to the MIC of the peptide against S. aureus USA300.
The hemolytic effects of the six peptides were also compared on human red blood cells (hRBC) using an established protocol (Malmsten et al. (2011) PLoS One 6:e16400). […] A high TI indicates good cell selectivity.
Peptide hemolysis was assayed using an established protocol (Menousek et al. (2012) Int. J. Antimicrob. Agents 39:402-406; Malmsten et al. (2011) PLoS One 6:e16400). Briefly, blood cells were washed three times with phosphate-buffered saline (PBS) and were diluted to a 5% solution. Following peptide treatment, incubation at 37° C. for 1 hour and centrifugation at 13,000 rpm, aliquots of the supernatant were transferred to a fresh 96-well microplate. To assess peptide cytotoxicity, the amount of hemoglobin released was measured at 545 nm. Percent lysis was calculated by assuming 100% release when human blood cells were treated with 2% Triton X-100 and 0% release when they were incubated with PBS buffer.

CC(C)C[C@H](NC(=O)[C@H](CC(N)=O)NC(=O)[C@H](CCCNC(=N)N)NC(=O)[C@@H](CC(C)C)NC(=O)[C@H](Cc1ccc(-c2ccccc2)cc1)NC(=O)[C@H](CC(=O)O)NC(=O)[C@H](CCCCN)NC(=O)[C@@H](CC(C)C)NC(=O)[C@H](CCCNC(=N)N)NC(=O)[C@H](CCC(N)=O)NC(=O)[C@@H](NC(=O)[C@@H](CC(C)C)NC(=O)[C@H](CCCNC(=N)N)NC(=O)[C@H](CCCCN)NC(=O)[C@H](Cc1ccc(-c2ccccc2)cc1)NC(=O)CN)C(C)C)C(=O)N[C@H](C(N)=O)C(C)C [D128A, GX1KRLVQRLKDX2LRNLV-amide] (H-G[Bip]KR[dL]VQR[dL]KD[Bip][dL]RNLV-NH2)
therapeutic index (hemolytic activity/MIC) (150/5, S. aureus USA300): 30 | cell selectivity index (ratio between HL50 and MIC): 72

CC(C)C[C@H](NC(=O)[C@H](CC(N)=O)NC(=O)[C@H](CCCNC(=N)N)NC(=O)[C@@H](CC(C)C)NC(=O)[C@H](Cc1ccc2ccccc2c1)NC(=O)[C@H](CC(=O)O)NC(=O)[C@H](CCCCN)NC(=O)[C@@H](CC(C)C)NC(=O)[C@H](CCCNC(=N)N)NC(=O)[C@H](CCC(N)=O)NC(=O)[C@@H](NC(=O)[C@@H](CC(C)C)NC(=O)[C@H](CCCNC(=N)N)NC(=O)[C@H](CCCCN)NC(=O)[C@H](Cc1ccc(C(F)(F)F)cc1)NC(=O)CN)C(C)C)C(=O)N[C@H](C(N)=O)C(C)C [17mF-Naph, GX1KRLVQRLKDX2LRNLV] (H-G[Phe(4-CF3)]KR[dL]VQR[dL]KD[2Nal][dL]RNLV-NH2)
cell selectivity index (ratio between HL50 and MIC): 161

CC(C)C[C@H](NC(=O)[C@H](CC(N)=O)NC(=O)[C@H](CCCNC(=N)N)NC(=O)[C@@H](CC(C)C)NC(=O)[C@H](Cc1ccc(C(F)(F)F)cc1)NC(=O)[C@H](CC(=O)O)NC(=O)[C@H](CCCCN)NC(=O)[C@@H](CC(C)C)NC(=O)[C@H](CCCNC(=N)N)NC(=O)[C@H](CCC(N)=O)NC(=O)[C@@H](NC(=O)[C@@H](CC(C)C)NC(=O)[C@H](CCCNC(=N)N)NC(=O)[C@H](CCCCN)NC(=O)[C@H](Cc1ccc2ccccc2c1)NC(=O)CN)C(C)C)C(=O)N[C@H](C(N)=O)C(C)C [17Naph-mF, GX1KRLVQRLKDX2LRNLV] (H-G[2Nal]KR[dL]VQR[dL]KD[Phe(4-CF3)][dL]RNLV-NH2)
cell selectivity index (ratio between HL50 and MIC): 306
